Assay [1] has as its target KRAB-Interacting Protein 1 (KAP1), Myc-tagged (UniProt Q13263). Nature of the assay: co-IP; HEK293T cells expressing the KRAB-domain of ZNF471 and KAP1; no further conditions told for this cell line.
Assay [2] has the same target. The assay is described as follows: co-IP; GES1 cells co-transfected for 48 h; lysis in RIPA buffer with sonication; immunoprecipitation with anti-Myc antibody and protein-G beads overnight at 4 °C; Western blot with anti-Flag or anti-GFP. (In general: Immunoblotting shows a protein as a band on a membrane.)

Chains of the proteins cited; added tags and fusions are not shown. Lines headed by an entry give the natural chain unless they say otherwise; changes in a name come on top.
UniProt Q13263: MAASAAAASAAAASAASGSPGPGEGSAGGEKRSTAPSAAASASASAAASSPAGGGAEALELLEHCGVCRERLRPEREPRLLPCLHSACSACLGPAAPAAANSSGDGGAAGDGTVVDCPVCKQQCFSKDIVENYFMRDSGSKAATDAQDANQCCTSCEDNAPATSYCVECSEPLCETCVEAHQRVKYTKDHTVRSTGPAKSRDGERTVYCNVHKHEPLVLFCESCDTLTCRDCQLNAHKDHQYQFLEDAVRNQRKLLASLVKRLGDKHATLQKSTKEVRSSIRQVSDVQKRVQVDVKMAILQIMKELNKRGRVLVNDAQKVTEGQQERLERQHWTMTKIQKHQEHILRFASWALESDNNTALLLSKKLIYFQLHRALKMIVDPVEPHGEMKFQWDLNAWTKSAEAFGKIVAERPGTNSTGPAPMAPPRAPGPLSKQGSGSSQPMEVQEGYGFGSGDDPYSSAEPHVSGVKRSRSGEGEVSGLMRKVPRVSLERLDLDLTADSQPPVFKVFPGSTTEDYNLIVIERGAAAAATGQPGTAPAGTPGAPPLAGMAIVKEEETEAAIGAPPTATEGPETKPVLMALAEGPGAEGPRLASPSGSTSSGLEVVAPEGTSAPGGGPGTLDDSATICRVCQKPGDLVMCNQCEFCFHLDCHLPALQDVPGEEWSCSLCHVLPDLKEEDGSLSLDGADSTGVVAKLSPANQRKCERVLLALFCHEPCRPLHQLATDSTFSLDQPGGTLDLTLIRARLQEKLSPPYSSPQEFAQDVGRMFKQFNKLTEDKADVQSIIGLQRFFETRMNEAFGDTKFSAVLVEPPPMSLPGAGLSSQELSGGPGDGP
UniProt Q9BX82: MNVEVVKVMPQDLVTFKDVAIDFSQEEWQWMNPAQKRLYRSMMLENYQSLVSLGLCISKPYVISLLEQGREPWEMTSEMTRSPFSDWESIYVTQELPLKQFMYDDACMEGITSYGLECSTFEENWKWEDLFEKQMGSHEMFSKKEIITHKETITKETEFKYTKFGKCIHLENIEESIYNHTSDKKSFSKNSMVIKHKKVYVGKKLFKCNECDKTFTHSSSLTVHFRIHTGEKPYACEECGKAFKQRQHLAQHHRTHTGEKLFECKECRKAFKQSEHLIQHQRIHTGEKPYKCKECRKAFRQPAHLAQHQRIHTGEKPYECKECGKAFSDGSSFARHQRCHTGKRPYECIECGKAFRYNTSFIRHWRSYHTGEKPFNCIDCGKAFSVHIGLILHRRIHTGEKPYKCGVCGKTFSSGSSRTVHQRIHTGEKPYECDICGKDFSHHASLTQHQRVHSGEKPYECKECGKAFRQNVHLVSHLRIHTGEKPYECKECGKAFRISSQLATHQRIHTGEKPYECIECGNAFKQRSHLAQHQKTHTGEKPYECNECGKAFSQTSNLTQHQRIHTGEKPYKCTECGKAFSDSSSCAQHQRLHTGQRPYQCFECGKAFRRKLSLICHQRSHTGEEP

These results are taken from publication PMC6021371.

These are yes or no findings as the source states them, for the method shown. Binding seen in cells or lysates may run through a third protein. Some results given as binding are weak or reduced against the parent protein; the word gives no strength.

On to “KRAB-domain of ZNF471 fused with GFP-tag (from UniProt Q9BX82 14-85) (domain or fragment)”, for which the binding entry in assay [1] and in assay [2] was “binds” each time.

As to “Zinc-finger protein 471 (ZNF471), full length, Flag-tagged (from UniProt Q9BX82 1-626)”, the binding result in assay [2] is reported as “binds”.
